# Results: PubChem BioAssay AID328 (DTP/NCI, 2004)
# The list does not hold the whole screen: it gathers tests that were run many times, whatever their T/C, doses with no T/C, and many T/C values between a quarter and a half above the control. Further doses and runs are listed elsewhere. T/C is the treated group as % of the vehicle group. Some doses have a count of surviving animals in place of a T/C: the source holds a T/C of zero for them, seemingly a mark for toxic or unscored doses. Some survivor counts are full or nearly so, which does not show that the dose was tolerated: survival well below the control is almost never listed, so the zero probably covers shortened survival too. Survivors were counted at the toxicity check, usually on the fifth day, unless a day is given; later deaths do not show. Schedules are NCI's codes, read here as Q, the interval in days (D) or hours (H), X, the number of doses. Some doses were run more than once; their values stand side by side, smallest first. For survival time, the PubChem record calls one and a half times the control and up active, and a quarter to a half above the control has no call in these data; cut-offs in other NCI protocols can differ. Some T/C values carry the count of animals alive at the toxicity check (mostly the fifth day); without a count, all were alive then. Additions like (4×) stand for listed records that agree.
# Test system: BDF1 mice, P388 leukemia ip, median survival T/C
# Test: NCI In Vivo Anticancer Drug Screen. Data for tumor model P388 Leukemia (intraperitoneal) in B6D2F1 (BDF1) mice
# Conditions: T/C endpoint: median survival time, higher T/C = longer survival
# How it was run: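 Steps: implant the tumour, treat one group with compound and another with vehicle, record survival, then divide treated by control.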
# [1] = dose: 50.0 mg/kg/injection, schedule: Q04DX003 (ip), vehicle: Klucel (hydroxypropylcellulose) (HPC)
# [2] = dose: 100.0 mg/kg/injection, schedule: Q01DX005 (ip), vehicle: Klucel (hydroxypropylcellulose) (HPC)
# [3] = dose: 100.0 mg/kg/injection, schedule: Q01DX009 (ip), vehicle: Klucel (hydroxypropylcellulose) (HPC)
# [4] = dose: 100.0 mg/kg/injection, schedule: Q04DX003 (ip), vehicle: Klucel (hydroxypropylcellulose) (HPC)
# [5] = dose: 200.0 mg/kg/injection, schedule: Q01DX001 (ip), vehicle: Klucel (hydroxypropylcellulose) (HPC)
# [6] = dose: 200.0 mg/kg/injection, schedule: Q01DX005 (ip), vehicle: Klucel (hydroxypropylcellulose) (HPC)
# [7] = dose: 200.0 mg/kg/injection, schedule: Q01DX009 (ip), vehicle: Klucel (hydroxypropylcellulose) (HPC)
# [8] = dose: 200.0 mg/kg/injection, schedule: Q04DX003 (ip), vehicle: Klucel (hydroxypropylcellulose) (HPC)
# [9] = dose: 400.0 mg/kg/injection, schedule: Q04DX002 (ip), vehicle: Klucel (hydroxypropylcellulose) (HPC)
# [10] = dose: 400.0 mg/kg/injection, schedule: Q04DX003 (ip), vehicle: Klucel (hydroxypropylcellulose) (HPC)
smiles,measurement,setting,value
NC(=S)N/N=C/c1ccc(O)cn1,T/C,"dose: 25.0 mg/kg/injection, schedule: Q01DX005 (ip), vehicle: Klucel (hydroxypropylcellulose) (HPC)","109, 117, 119, 122, 123, 131, 132, 134, 134 [5 of 6 alive], 137, 140 (2×), 144, 148, 148 [5 of 6 alive], 150 (2×), 154, 156, 161, 162, 163, 165, 166, 168, 170, 171 (2×), 173 (2×), 174, 176, 181, 182, 190 % of control"
same,T/C,"dose: 25.0 mg/kg/injection, schedule: Q01DX009 (ip), vehicle: Klucel (hydroxypropylcellulose) (HPC)","118, 119, 124, 128, 135, 148 (3×), 150, 151, 152, 157, 162 (2×), 163, 165, 165 [2 of 3 alive], 167, 169, 173, 176, 179, 180 [5 of 6 alive], 181, 184, 187, 189, 192, 193, 194, 195, 207, 209, 221, 226 % of control"
same,T/C,"dose: 25.0 mg/kg/injection, schedule: Q04DX002 (ip), vehicle: Klucel (hydroxypropylcellulose) (HPC)",135 % of control
same,T/C,"dose: 25.0 mg/kg/injection, schedule: Q04DX003 (ip), vehicle: Klucel (hydroxypropylcellulose) (HPC)",133 % of control
same,T/C,"dose: 50.0 mg/kg/injection, schedule: Q01DX001 (ip), vehicle: Klucel (hydroxypropylcellulose) (HPC)","97, 107, 109, 110 [2 of 3 alive], 112 (3×), 115, 120 (2×), 121 (2×), 122, 124 [5 of 6 alive], 128, 129 (2×), 133 (2×), 134 (2×), 136, 138, 142, 147, 148, 149, 162 % of control"
same,T/C,"dose: 50.0 mg/kg/injection, schedule: Q01DX005 (ip), vehicle: Klucel (hydroxypropylcellulose) (HPC)","117, 123, 125, 131, 134 [2 of 3 alive], 137 [5 of 6 alive], 142, 144, 148 (2×), 149 (2×), 154, 157, 159, 159 [4 of 6 alive], 160, 161, 165, 168, 172, 174 [5 of 6 alive], 176, 177, 178, 181, 187, 191, 193 (2×), 198, 203, 207, 210, 249 % of control"
same,T/C,"dose: 50.0 mg/kg/injection, schedule: Q01DX009 (ip), vehicle: Klucel (hydroxypropylcellulose) (HPC)","135, 140 [2 of 3 alive], 150, 151, 153, 160, 164, 165, 166, 168, 172, 173 (2×), 175, 176, 187, 189, 190, 193, 196 (2×), 197, 198, 199 (2×), 201, 203, 205, 211, 213, 217, 225, 233, 245, 247, 257 % of control"
same,T/C,"dose: 50.0 mg/kg/injection, schedule: Q04DX002 (ip), vehicle: Klucel (hydroxypropylcellulose) (HPC)","94, 113, 116, 118 (2×), 120, 121, 122, 125 (2×), 126, 128, 129 (2×), 130, 132, 133 (2×), 134, 139, 142, 146, 147, 150, 151, 152 (2×), 154, 159, 161 (2×), 171 (2×), 173 % of control"
same,T/C,[1],"108, 111, 115, 117, 117 [5 of 6 alive], 127, 130, 132, 133, 134 (2×), 135, 139, 141, 142 (3×), 146 (2×), 149 (3×), 150 (2×), 151, 155 (2×), 156 (2×), 158, 161, 168, 168 [4 of 6 alive], 175, 228 % of control"
same,survivor count,[1],3 of 3
same,T/C,"dose: 100.0 mg/kg/injection, schedule: Q01DX001 (ip), vehicle: Klucel (hydroxypropylcellulose) (HPC)","93, 106, 112, 113, 120 (2×), 122, 123, 126, 128 (2×), 130 (2×), 133, 134 [5 of 6 alive], 135 (2×), 136, 137 (2×), 148, 151 (2×), 154, 155, 158, 159, 161 % of control"
same,T/C,[2],"102, 115, 117, 126, 128, 130, 139, 149, 153, 160, 166, 168, 174, 177 [2 of 3 alive], 179, 182, 190, 191, 192, 193, 195 [5 of 6 alive], 198, 201, 202 (2×), 212, 216, 220, 221, 224, 227, 229, 248, 250 % of control"
same,survivor count,[2],3 of 3
same,T/C,[3],"86 (2×), 87, 88, 103, 120, 142, 151, 162, 165, 168, 178, 179, 180, 181, 182, 189, 194, 195, 201, 203, 205 [5 of 6 alive], 207, 217, 220, 223, 226, 229, 236, 242, 243, 248, 267 % of control"
same,survivor count,[3],3 of 3 and 6 of 6
same,T/C,"dose: 100.0 mg/kg/injection, schedule: Q04DX002 (ip), vehicle: Klucel (hydroxypropylcellulose) (HPC)","102, 113, 114, 115, 121 (2×), 122, 133, 134, 137, 138 (2×), 141, 142, 145, 146, 147 (2×), 148, 149, 150, 152, 154, 155 (2×), 160, 161 (2×), 164, 165, 169 (2×), 171 % of control (2×)"
same,T/C,[4],"103, 123, 129, 133, 139 (2×), 140, 141, 142, 144, 145 (2×), 146, 147 (3×), 151, 155, 159, 160, 161, 163 (2×), 164, 165, 166, 168, 174, 175, 178 (2×), 179, 180, 185, 186 % of control"
same,survivor count,[4],3 of 3
same,survivor count,"dose: 150.0 mg/kg/injection, schedule: Q01DX009 (ip), vehicle: saline with Tween-80",6 of 6
same,T/C,[5],"121, 126, 127, 128, 129 (3×), 131, 136, 139 (2×), 140, 144 (2×), 145, 146, 148, 149, 151 (2×), 154, 155, 159, 161, 163, 165, 175 % of control"
same,survivor count,[5],6 of 6
same,T/C,[6],"89, 93, 126, 154, 163, 168, 175, 188, 189 (2×), 193, 194, 218 % of control"
same,survivor count,[6],"2 of 3, 3 of 3, 6 of 6"
same,T/C,[7],"86, 88 [5 of 6 alive], 92, 97, 98, 112, 137, 187 [5 of 6 alive], 193, 264, 271 % of control"
same,survivor count,[7],"2 of 3, 4 of 6, 5 of 6, 3 of 3, 6 of 6"
same,T/C,"dose: 200.0 mg/kg/injection, schedule: Q04DX002 (ip), vehicle: Klucel (hydroxypropylcellulose) (HPC)","114, 120, 121, 125, 127, 132, 135, 137, 138, 141, 142, 143, 153 [5 of 6 alive], 154, 156, 158, 162 (2×), 165, 166 (2×), 167, 169 (2×), 173, 174 (2×), 175, 180, 181, 186 (2×), 193, 205 % of control"
same,T/C,[8],"110, 125, 129 (2×), 131, 146, 159, 160 (3×), 162, 163, 165 (2×), 166, 167, 169 (2×), 170, 171, 172, 175, 176, 180, 181, 182, 183, 185, 188, 189, 190 (2×), 204, 209 % of control (2×)"
same,survivor count,[8],3 of 3
same,survivor count,"dose: 300.0 mg/kg/injection, schedule: Q01DX009 (ip), vehicle: saline with Tween-80",6 of 6
same,T/C,"dose: 400.0 mg/kg/injection, schedule: Q01DX001 (ip), vehicle: Klucel (hydroxypropylcellulose) (HPC)","134, 137, 138, 138 [5 of 6 alive], 139, 139 [5 of 6 alive], 141, 143, 146, 147, 149, 150, 151, 152, 154 (3×), 156, 157, 160 (3×), 163 (2×), 171, 188 % of control"
same,survivor count,"dose: 400.0 mg/kg/injection, schedule: Q01DX009 (ip), vehicle: Klucel (hydroxypropylcellulose) (HPC)",6 of 6
same,T/C,[9],"112, 115, 121, 128 (2×), 134, 141, 148, 151, 152, 154, 155, 156, 159, 160, 169, 171, 174 [5 of 6 alive], 175, 181, 188, 192 (2×), 194, 200, 204, 205, 217, 221 % of control"
same,survivor count,[9],3 of 3 and 6 of 6
same,T/C,[10],"87, 88, 94, 96, 129, 135, 136, 144, 149, 163, 164, 171, 174 (2×), 175, 176, 179, 180, 181, 190, 192, 194, 195, 200, 203, 215, 217, 218, 220, 223, 227 % of control"
same,survivor count,[10],3 of 3
